Experiment [1] deals with Trp1 on B78H1-Trp1 cells (B78H1 engineered to express TRP1 on the surface). As to the kind of experiment: flow cytometry on B78H1-Trp1 cells, anti-mouse IgG PE detection. On the technique in general: In flow cytometry, cells or beads pass a laser one at a time.
The target is the same in experiment [2]. Put plainly: flow cytometry on B78H1-Trp1 cells (surface Trp1), detection with anti-mouse IgG PE.

No constants are given. Whether binding was seen depends on the method and setting. Binding calls can cover weak binding; strength is not graded here. Tags and fused reporters may be left off the sequences shown.

Drawing on patent publication US20190375855A1 (Memorial Sloan Kettering, published 2019), this text covers binding for two molecules.

B1: murine monoclonal antibody TA99 (antibody, V domains shown)
VH: EVQLQQSGAELVRPGALVKLSCKTSGFNIKDYFLHWVRQRPDQGLEWIGWINPDNGNTVYDPKFQGTASLTADTSSNTVYLQLSGLTSEDTAVYFCTRRDYTYEKAALDYWGQGASVIVSS
VL: AFQMSQSPASLSASVGETVTITCRASGNIYNYLAWYQQKQGKSPHLLVYDAKTLADGVPSRFSGSGSGTQYSLKISSLQTEDSGNYYCQHFWSLPFTFGSGTKLEIKA
With B1, the binding result in experiment [1] and in experiment [2] was “binds” throughout.

B2: soluble protein comprising the TA99-derived scFv and a Fc domain fused to the scFv (Fc fusion, not shown: a dimerising Fc or GST)
scFv: EVQLQQSGAELVRPGALVKLSCKTSGFNIKDYFLHWVRQRPDQGLEWIGWINPDNGNTVYDPKFQGTASLTADTSSNTVYLQLSGLTSEDTAVYFCTRRDYTYEKAALDYWGQGASVIVSSGGGGSGGGGSGGGGSAFQMSQSPASLSASVGETVTITCRASGNIYNYLAWYQQKQGKSPHLLVYDAKTLADGVPSRFSGSGSGTQYSLKISSLQTEDSGNYYCQHFWSLPFTFGSGTKLEIKAAA
notes: also called scFv-Fc fusion protein; TA99 single chain variable region fused to an Fc domain
As for B2, the binding result in experiment [1] and in experiment [2] was “binds” throughout.
